Measurements as given in patent publication US4725581A, “New peptide compounds having a lactone or cycloamide structure” (ADIR et Compagnie, priority 1985, dated 1988).
At least one peptide structure holds a part that was inferred or is arguable (an end, a ring closure or a residue). Square brackets hold non-standard residues; d marks the D form. Peptide text beside a SMILES is read from it. Oic = O=C(O)[C@@H]1C[C@@H]2CCCC[C@@H]2N1; pGlu = O=C1CC[C@@H](C(=O)O)N1

Key:
Type in all cases: in vivo
mice = assay: Increase of spontaneous motility; conditions: 30 mg/kg intraperitoneally
cerebral AMPc = assay: Stimulation of the synthesis of cerebral AMPc; conditions: mice OF1/IFFA-Credo, 10 mg/kg intraperitoneally, five minutes after injection
Protocol: The compounds to be tested are administered intraperitoneally at a dose of 10 mg/kg to mice of strain OF1 /IFFA-Credo.
Five minutes after injection, the animals are sacrificed by freezing and the AMPc present in the cerebral structures is measured by radio immunology according to the Amersham method (specific binding protein).

rats = assay: Increase in the latency of the onset of sleep induced by Pentobarbital; conditions: 10 mg/kg i.p. before pentobarbital 40 mg/kg i.p.
Protocol: Pentobarbital, injected in rats at a dose of 40 mg/kg i.p., induces the onset of sleep.

Structure (SMILES)	effect on spontaneous motility 60 minutes after treatment (mice; 60 minutes after, compared with the tenth minute)	spontaneous motility compared to non treated mice (mice; during the hour following treatment)	increase of the intracerebral content of AMPc (cerebral AMPc)	delay of the onset of sleep induced by pentobarbital (rats)
NC(=O)[C@@H]1C2CCC(CC2)N1C(=O)[C@H](Cc1c[nH]cn1)NC(=O)[C@@H]1CCC(=O)N1 [Example 5, (S)PyroGlu--(S)His--(S)ABO--NH2]	identical	active as early as the tenth minute after treatment	–	–
NC(=O)[C@@H]1C[C@@H]2CCCC[C@@H]2N1C(=O)[C@H](Cc1c[nH]cn1)NC(=O)[C@@H]1CCC(=O)N1 [Example 1, (S)PyroGlu--(S)His--(S)PHI--NH2] ([pGlu]-His-[Oic]-NH2)	–	–	+95%	–
NC(=O)[C@@H]1C[C@@H]2CCCC[C@@H]2N1C(=O)[C@H](Cc1c[nH]cn1)NC(=O)[C@@H]1CCC(=O)O1 [Example 2, (S)Blc--(S)His--(S)PHI--NH2]	–	–	+102%	+110%
